The series deals with the molecule itself. Kind of series: self-assembly of triple helices, electron microscopy. The procedure:
FIG. 4A and FIG. 4B are TEM images of the d-periodic mini-fibrils of Col877. The fibril formation was initiated by transferring Col877 in 5 mM acetic acid (pH 4.5) to TES buffer (pH 7) and incubated for 24 hr at 37° C. The samples were stained with 1% sodium phosphotungstate; magnification factor 10,000; the scale bar is 200 nm. The two images were taken for two different preparations under identical treatments. These figures show Col887 successfully forms fibrils.

B1: peptide Col877 (collagen-mimetic triple helix, three C877-domain units) (peptide)
chain: GPCCGPPGPPGPPGPPGPVGPAGKSGDRGETGPAGPAGPVGPVGARGPAGPQGPRGDKGETGEQGDRGIKGHRGFSGLQGPPGPPGSPGEQGPSGASGPAGPRGPPGSAGAPGKDGLNGLPGPIGPPGPPGPPGPPGPVGPAGKSGDRGETGPAGPAGPVGPVGARGPAGPQGPRGDKGETGEQGDRGIKGHRGFSGLQGPPGPPGSPGEQGPSGASGPAGPRGPPGSAGAPGKDGLNGLPGPIGPPGPPGPPGPPGPVGPAGKSGDRGETGPAGPAGPVGPVGARGPAGPQGPRGDKGETGEQGDRGIKGHRGFSGLQGPPGPPGSPGEQGPSGASGPAGPRGPPGSAGAPGKDGLNGLPGPIGPPGPPGPPGPPGPCCGYIPEAPRDGQAYVRKDGEWVLLSTFL
notes: Designed peptide; Forms a collagen triple helix (trimer) with Cys-knots and foldon; also called Col887
With B1, the binding result is given as “binds”.

These data come from patent US20200123231A1 (RESEARCH FOUNDATION OF THE CITY UNIVERSITY OF NEW YORK, published 2020).
